The text below walks through data of article PMC10853778 (Nucleic Acids Research, 2022).

The subject of this series is T1, RTEL1 HHD1 (Homo sapiens).
T1 sequence (looked up): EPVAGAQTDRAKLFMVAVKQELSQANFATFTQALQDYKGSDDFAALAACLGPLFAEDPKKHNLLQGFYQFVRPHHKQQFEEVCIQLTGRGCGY
In words: NMR titration. The settings on record: minor CSPs, no or very weak binding; NMR: 20 mM Tris-HCl pH 7.4, 50 mM NaCl, 2 mM DTT, 0.02% NaN3, 10% D2O, 25 C (one ssDNA-22 titration at pH 6.5); recombinant protein; residues 886-978; protein details: N-terminal 6xHis.

Construct, isoform or probe ends are uncertain for at least one entry. A weaker result is weaker than the reference pair of the same experiment. Protein sequences can lack the tags named with them.

Turning to “AGGATTAGGATTAGGATTAGGA (double strand) [dsDNA-22]”, the binding result was “binds more weakly”.
